Binding data for 4 molecules are collected here from PMC11054080.

The chains behind the UniProt entries cited, without tags or fusion partners.
UniProt Q39204: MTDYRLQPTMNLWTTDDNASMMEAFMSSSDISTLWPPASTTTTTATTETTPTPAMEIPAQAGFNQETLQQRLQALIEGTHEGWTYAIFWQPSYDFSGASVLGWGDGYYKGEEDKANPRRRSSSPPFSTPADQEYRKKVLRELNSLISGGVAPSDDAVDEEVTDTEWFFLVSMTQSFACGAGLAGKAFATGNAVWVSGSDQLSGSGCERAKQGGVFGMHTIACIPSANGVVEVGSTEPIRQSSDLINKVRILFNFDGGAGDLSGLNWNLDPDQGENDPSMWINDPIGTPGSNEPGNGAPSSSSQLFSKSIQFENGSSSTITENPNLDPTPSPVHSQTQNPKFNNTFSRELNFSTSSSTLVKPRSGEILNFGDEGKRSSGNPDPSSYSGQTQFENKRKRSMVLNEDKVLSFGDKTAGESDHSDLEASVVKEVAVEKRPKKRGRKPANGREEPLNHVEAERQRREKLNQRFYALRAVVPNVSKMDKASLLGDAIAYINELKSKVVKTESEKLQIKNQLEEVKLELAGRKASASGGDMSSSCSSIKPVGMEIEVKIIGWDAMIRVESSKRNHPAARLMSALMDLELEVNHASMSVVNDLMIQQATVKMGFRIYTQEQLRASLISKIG

Results are given in words; binding and its absence hold for the method and conditions named. For some assays here: In cells and extracts the contact can be indirect. For some assays here: Sequences can lack the tags named with a protein.

Experiment [1] concerns the target T1, PAP1 with HA label (pPAP1-HA) (A. thaliana) (UniProt Q9FE25).
T1 sequence: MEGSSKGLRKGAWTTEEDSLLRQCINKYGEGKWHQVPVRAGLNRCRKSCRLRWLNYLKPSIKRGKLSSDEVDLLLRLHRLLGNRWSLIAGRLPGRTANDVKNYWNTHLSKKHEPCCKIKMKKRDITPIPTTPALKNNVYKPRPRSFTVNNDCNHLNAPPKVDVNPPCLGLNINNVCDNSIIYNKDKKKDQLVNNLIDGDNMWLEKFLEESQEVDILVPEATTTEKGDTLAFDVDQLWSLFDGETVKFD
Briefly: co-IP; HA- and MYC-labelled proteins co-expressed in N. benthamiana leaves (sampled 40 h after infiltration); total protein extract (50 mM Tris-HCl pH 7.5, 150 mM NaCl, 1 mM EDTA, 10% glycerol, 0.05% Tween20, 10 mM DTT, 50 uM MG132) on HA-agarose beads; blots with anti-HA and anti-MYC.

In experiment [2] the target is T2, GL3 labeled by HA-tag (pGL3-HA) (A. thaliana) (UniProt Q9FN69).
T2 sequence: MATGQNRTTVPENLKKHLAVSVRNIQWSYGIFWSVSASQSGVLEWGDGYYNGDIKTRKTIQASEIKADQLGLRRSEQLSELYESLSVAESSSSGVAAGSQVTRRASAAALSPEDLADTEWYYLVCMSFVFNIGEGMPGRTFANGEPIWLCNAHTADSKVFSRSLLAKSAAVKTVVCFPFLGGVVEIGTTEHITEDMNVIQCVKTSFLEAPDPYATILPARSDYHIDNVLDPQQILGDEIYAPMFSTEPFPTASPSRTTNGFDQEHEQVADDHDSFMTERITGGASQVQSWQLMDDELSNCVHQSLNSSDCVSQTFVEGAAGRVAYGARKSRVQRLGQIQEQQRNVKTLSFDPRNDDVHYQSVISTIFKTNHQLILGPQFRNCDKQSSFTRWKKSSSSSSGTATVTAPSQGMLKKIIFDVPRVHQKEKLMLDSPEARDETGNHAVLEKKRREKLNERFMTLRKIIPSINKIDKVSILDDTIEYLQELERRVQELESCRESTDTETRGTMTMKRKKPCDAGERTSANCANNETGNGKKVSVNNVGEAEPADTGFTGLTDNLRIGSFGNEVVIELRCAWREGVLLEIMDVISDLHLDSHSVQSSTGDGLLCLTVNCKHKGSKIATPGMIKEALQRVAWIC
The experiment is described as above.

For experiment [3], the target named is MYC2 with HA label (pMYC2-HA) (A. thaliana) (UniProt Q39204). The description is as above.
The target of experiment [4] is T3, TTG1 in yeast two-hybrid (A. thaliana) (UniProt Q9XGN1).
T3 sequence: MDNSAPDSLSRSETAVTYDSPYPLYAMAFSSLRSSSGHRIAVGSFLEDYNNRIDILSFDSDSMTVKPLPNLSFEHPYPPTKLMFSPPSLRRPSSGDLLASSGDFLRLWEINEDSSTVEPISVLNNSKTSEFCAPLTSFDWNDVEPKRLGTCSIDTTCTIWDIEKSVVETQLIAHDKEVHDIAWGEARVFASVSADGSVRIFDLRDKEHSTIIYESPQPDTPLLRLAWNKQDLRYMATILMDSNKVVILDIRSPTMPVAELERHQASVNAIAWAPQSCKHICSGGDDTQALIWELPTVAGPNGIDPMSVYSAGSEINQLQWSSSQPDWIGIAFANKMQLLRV
Briefly: two-hybrid; HybriZAP-2.1 Gal4 system, pAD-GAL4 2.1 and pBD-GAL4 Cam fusions in YRG-2 yeast; growth on SD/-Leu-His-Trp with or without 3-AT (HIS3 reporter).

Experiment [5] has as its target T4, BBX21 with MYC label (pBBX21-MYC) (A. thaliana) (UniProt Q9LQZ7).
T4 sequence: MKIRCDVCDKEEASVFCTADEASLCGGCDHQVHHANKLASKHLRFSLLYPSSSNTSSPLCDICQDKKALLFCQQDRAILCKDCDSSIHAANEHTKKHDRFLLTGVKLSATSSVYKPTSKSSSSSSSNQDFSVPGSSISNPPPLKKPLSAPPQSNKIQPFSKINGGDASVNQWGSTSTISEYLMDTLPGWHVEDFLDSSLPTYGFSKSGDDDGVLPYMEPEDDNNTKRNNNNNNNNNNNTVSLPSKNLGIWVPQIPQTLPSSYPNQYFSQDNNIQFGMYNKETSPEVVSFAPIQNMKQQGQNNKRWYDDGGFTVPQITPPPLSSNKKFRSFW
Put plainly: co-IP; HA- and MYC-labelled proteins co-expressed in N. benthamiana leaves (sampled 40 h after infiltration); total protein extract (50 mM Tris-HCl pH 7.5, 150 mM NaCl, 1 mM EDTA, 10% glycerol, 0.05% Tween20, 10 mM DTT, 50 uM MG132) on HA-agarose beads; blots with anti-HA and anti-MYC.

B1: BBX21 with MYC label (pBBX21-MYC) (protein, UniProt Q9LQZ7 1-331)
chain: MKIRCDVCDKEEASVFCTADEASLCGGCDHQVHHANKLASKHLRFSLLYPSSSNTSSPLCDICQDKKALLFCQQDRAILCKDCDSSIHAANEHTKKHDRFLLTGVKLSATSSVYKPTSKSSSSSSSNQDFSVPGSSISNPPPLKKPLSAPPQSNKIQPFSKINGGDASVNQWGSTSTISEYLMDTLPGWHVEDFLDSSLPTYGFSKSGDDDGVLPYMEPEDDNNTKRNNNNNNNNNNNTVSLPSKNLGIWVPQIPQTLPSSYPNQYFSQDNNIQFGMYNKETSPEVVSFAPIQNMKQQGQNNKRWYDDGGFTVPQITPPPLSSNKKFRSFW
In the case of B1, the binding entry in experiment [1], in experiment [2] and in experiment [3] was “no binding” in each case.

B2: BBX21 in yeast two-hybrid (protein, UniProt Q9LQZ7 1-331)
chain: MKIRCDVCDKEEASVFCTADEASLCGGCDHQVHHANKLASKHLRFSLLYPSSSNTSSPLCDICQDKKALLFCQQDRAILCKDCDSSIHAANEHTKKHDRFLLTGVKLSATSSVYKPTSKSSSSSSSNQDFSVPGSSISNPPPLKKPLSAPPQSNKIQPFSKINGGDASVNQWGSTSTISEYLMDTLPGWHVEDFLDSSLPTYGFSKSGDDDGVLPYMEPEDDNNTKRNNNNNNNNNNNTVSLPSKNLGIWVPQIPQTLPSSYPNQYFSQDNNIQFGMYNKETSPEVVSFAPIQNMKQQGQNNKRWYDDGGFTVPQITPPPLSSNKKFRSFW
Regarding B2, the binding entry in experiment [4] is on record as “no binding”.

B3: SPL9 in yeast two-hybrid (protein, UniProt Q700W2 1-375)
chain: MEMGSNSGPGHGPGQAESGGSSTESSSFSGGLMFGQKIYFEDGGGGSGSSSSGGRSNRRVRGGGSGQSGQIPRCQVEGCGMDLTNAKGYYSRHRVCGVHSKTPKVTVAGIEQRFCQQCSRFHQLPEFDLEKRSCRRRLAGHNERRRKPQPASLSVLASRYGRIAPSLYENGDAGMNGSFLGNQEIGWPSSRTLDTRVMRRPVSSPSWQINPMNVFSQGSVGGGGTSFSSPEIMDTKLESYKGIGDSNCALSLLSNPHQPHDNNNNNNNNNNNNNNTWRASSGFGPMTVTMAQPPPAPSQHQYLNPPWVFKDNDNDMSPVLNLGRYTEPDNCQISSGTAMGEFELSDHHHQSRRQYMEDENTRAYDSSSHHTNWSL
Take B3: the binding result in experiment [4] was “no binding”.

B4: SPL9 with MYC label (pSPL9-MYC) (protein, UniProt Q700W2 1-375)
chain: MEMGSNSGPGHGPGQAESGGSSTESSSFSGGLMFGQKIYFEDGGGGSGSSSSGGRSNRRVRGGGSGQSGQIPRCQVEGCGMDLTNAKGYYSRHRVCGVHSKTPKVTVAGIEQRFCQQCSRFHQLPEFDLEKRSCRRRLAGHNERRRKPQPASLSVLASRYGRIAPSLYENGDAGMNGSFLGNQEIGWPSSRTLDTRVMRRPVSSPSWQINPMNVFSQGSVGGGGTSFSSPEIMDTKLESYKGIGDSNCALSLLSNPHQPHDNNNNNNNNNNNNNNTWRASSGFGPMTVTMAQPPPAPSQHQYLNPPWVFKDNDNDMSPVLNLGRYTEPDNCQISSGTAMGEFELSDHHHQSRRQYMEDENTRAYDSSSHHTNWSL
For the molecule B4, the binding result in experiment [5], in experiment [2] and in experiment [3] was “no binding” throughout.
